The list shows a part of the results. The main result of the screen is listed elsewhere. These columns were measured beside it and carry no call. Most of these compounds were active or inconclusive in the main read-out, so they are no random draw. Potencies come from curve fits of mixed quality, noted in brackets.
Experiment: qHTS Assay for Modulators of Lamin A Splicing
Conditions: HeLa LMNA splicing GFP/RFP minigene ratio, 48 h
In short: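 S3 HeLa cells stably expressing lamin A-EGFP splicing minigene plus DsRed2, 600 cells/well, 48 h compound exposure at 37C. Laser-scanning cytometry; analysed as GFP (500-530 nm)/RFP (575-640 nm) total intensity ratio; 0.5% DMSO vehicle.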

[1] = measured here: GFP splicing reporter channel
[2] = measured here: RFP viability control channel

| Structure (SMILES) | AC50 [1] | AC50 [2] |
| --- | --- | --- |
| Cn1c(=O)n(C)c2cc(S(=O)(=O)Nc3ccccc3)ccc21 | 35.5 µM [falling, single point] | 12.6 µM [falling, single point] |
| CC(C)Oc1ccc(Cn2c(=O)sc3ccccc32)cc1 |  | 35.5 µM [rising, single point] |
| CCOC(=O)N1CCC(N2CCN(S(=O)(=O)c3ccc(OC)cc3)CC2)CC1 | 0.01 µM [falling, full curve, poor fit] |  |
| C/C(=N\NC(=O)c1ccc(CN2CCOCC2)cc1)c1ccc([N+](=O)[O-])cc1 |  | 0.0794 µM [falling, full curve, poor fit] |
| O=C(Nc1ccc(S(=O)(=O)Nc2ccccc2)cc1)c1ccc(CN2CCOCC2)cc1 | 2.51 µM [falling, full curve, poor fit] | 2.51 µM [falling, full curve, poor fit] |
| COc1ccc(OC)c(NC(=O)CSC2=Nc3ccccc3C3=NC(CC(=O)NCc4ccc(F)cc4)C(=O)N23)c1 (stereo not drawn) | 12.6 µM [rising, single point] |  |
| O=C(OCCNc1nc(-c2ccccc2)nc2ccccc12)c1ccncc1 |  | 0.0355 µM [rising, full curve, poor fit] |
| O=C(CN1CCN(Cc2ccc(Cl)cc2)C1=O)NCCCN1CCN(c2ccc(F)cc2)CC1 | 14.1 µM [rising, single point] | 14.1 µM [rising, single point] |
| O=C(N/N=C/c1cccc(Oc2ccc([N+](=O)[O-])cc2[N+](=O)[O-])c1)c1cncc(Br)c1 | 17.8 µM [falling, single point] | 35.5 µM [falling, single point] |
| CC(=O)Nc1cccc(N=NN2CCCCC2)c1 | 0.0355 µM [rising, full curve, poor fit] |  |
| Cc1noc(C)c1-c1ccc2ncnc(Nc3ccc(F)cc3)c2c1 | 11.2 µM [falling, partial curve] | 14.1 µM [falling, partial curve] |
| CCCCn1c(NC(=O)c2ccco2)c(S(=O)(=O)c2ccc(C)cc2)c2nc3ccccc3nc21 | 15.8 µM [rising, single point] | 31.6 µM [rising, single point] |
| Cc1ccsc1C1C=C(c2cccc(Br)c2)Nc2ncnn21 (stereo not drawn) | 5.62 µM [rising, single point] | 5.62 µM [rising, single point] |
| COc1ccccc1NC(=O)C(CC=C(Cl)Cl)C(C)=O (stereo not drawn) | 11.2 µM [rising, single point] |  |
| Fc1ccccc1COc1ccc2ccccc2c1CNc1nn[nH]n1 |  | 35.5 µM [rising, single point] |
| COc1ccc(CCNC(=O)c2cc(-c3ccccc3OC)on2)cc1OC | 11.2 µM [rising, single point] | 15.8 µM [rising, partial curve] |
| O=C(NCCOCCNC(=O)OCc1ccccc1)OCc1ccccc1 |  | 10 µM [falling, partial curve] |
| Cc1c(/C(O)=C2\C(=O)C(=O)N(CCN(C)C)C2c2cccs2)cnn1-c1ccccc1 (stereo not drawn) |  | 31.6 µM [rising, single point] |

| Structure (SMILES) | AC50 [1] | AC50 [2] |
| --- | --- | --- |
| N#C/C(=C(\O)CCl)c1nnc2n1CCCCC2 |  | 0.02 µM [falling, full curve, poor fit] |
| Cc1c(Nc2nc(-c3cccc([N+](=O)[O-])c3)cs2)c(=O)n(-c2ccccc2)n1C |  | 3.16 µM [falling, full curve] |
| CCOc1ccccc1NC(=O)CCNC(=O)c1ccc(Cl)cc1 | 35.5 µM [rising, single point] |  |
| COc1ccc(Cn2c(/C=C/c3ccccc3)nc3ccccc32)cc1 | 10 µM [falling, partial curve] | 11.2 µM [falling, partial curve] |
| CCOC(=O)C1CCCN(Cc2nc3ccc([N+](=O)[O-])cc3c(=O)n2-c2ccc(OC)cc2OC)C1 (stereo not drawn) |  | 22.4 µM [rising, partial curve, poor fit] |
| Cc1ccc(C2C(C#N)=C(N)Oc3cc4c(cc32)OCO4)cc1 (stereo not drawn) |  | 3.16 µM [rising, single point] |
| CC(=O)Nc1ccc(/C=N/N2C(=O)NC(C)(c3ccc(OC(F)F)cc3)C2=O)cc1 (stereo not drawn) | 10 µM [rising, partial curve, poor fit] |  |
| O=C(CCc1nc(-c2ccccc2F)no1)NCCc1ccccc1Cl |  | 35.5 µM [rising, single point] |
| COc1ccc(NC(=O)/C(C#N)=C\c2cc(C)n(-c3ccc4c(c3)OCO4)c2C)cc1 | 1 µM [rising, partial curve] | 11.2 µM [rising, partial curve] |
| COC(=O)c1ccc2c(c1)C(C)(C)C(/C=C/c1ccc(O)cc1)=[N+]2C |  | 8.91 µM [falling, partial curve] |
| COC(=O)CNC(=O)N1CCN(S(=O)(=O)c2ccc3c(ccn3C)c2)CC1 |  | 0.282 µM [falling, full curve] |
| C/C(=N\N1CCN(c2ccc(Cl)cc2)CC1)c1cccc([N+](=O)[O-])c1 |  | 0.282 µM [falling, full curve, poor fit] |
| COc1ccc(Cn2nc(C)cc2C)cc1OC | 12.6 µM [rising, single point] | 17.8 µM [rising, single point] |
| O=C(C[n+]1ccc(Cc2ccccc2)cc1)Nc1ccccc1 | 11.2 µM [rising, partial curve] | 20 µM [rising, single point] |
| Cc1ccc(-c2nn(-c3ccccc3)cc2CNCc2ccccc2)cc1 | 35.5 µM [falling, partial curve, poor fit] | 28.2 µM [falling, partial curve, poor fit] |
| Cc1ccc(NC(=O)c2ncoc2-c2ccco2)cc1Cl |  | 0.0447 µM [falling, full curve, poor fit] |
| Cc1cccc(C)c1NC(=O)Cn1c(SCC(=O)NCc2ccccc2)nc2ccccc21 |  | 35.5 µM [rising, single point] |

Three compounds picked at random from those above, as already listed:

| Structure (SMILES) | AC50 [1] | AC50 [2] |
| --- | --- | --- |
| Cc1cccc(C)c1NC(=O)Cn1c(SCC(=O)NCc2ccccc2)nc2ccccc21 |  | 35.5 µM [rising, single point] |
| O=C(CCc1nc(-c2ccccc2F)no1)NCCc1ccccc1Cl |  | 35.5 µM [rising, single point] |
| Cc1ccc(C2C(C#N)=C(N)Oc3cc4c(cc32)OCO4)cc1 (stereo not drawn) |  | 3.16 µM [rising, single point] |

Reference: PubChem BioAssay AID1487 (National Center for Advancing Translational Sciences (NCATS), 2009)
